These are yes or no findings as the source states them, for the method shown. Binding seen in cells or lysates may run through a third protein. Some results given as binding are weak or reduced against the parent protein; the word gives no strength.
T1: CCN1-HuFc (mouse CCN1 without stop codon in pCAG-HuFc) (mouse) (UniProt P18406)
T1 sequence: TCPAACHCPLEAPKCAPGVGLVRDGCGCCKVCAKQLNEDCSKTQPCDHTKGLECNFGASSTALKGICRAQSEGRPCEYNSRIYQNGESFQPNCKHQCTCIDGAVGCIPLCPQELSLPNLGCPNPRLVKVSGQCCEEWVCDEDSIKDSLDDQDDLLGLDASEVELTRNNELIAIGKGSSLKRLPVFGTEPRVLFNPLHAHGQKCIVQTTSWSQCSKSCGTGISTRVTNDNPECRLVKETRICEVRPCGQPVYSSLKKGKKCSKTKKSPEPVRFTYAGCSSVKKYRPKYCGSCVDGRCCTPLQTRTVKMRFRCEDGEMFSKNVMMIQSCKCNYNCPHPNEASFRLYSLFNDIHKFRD


Molecular target: T1, CCN1-HuFc (mouse CCN1 without stop codon in pCAG-HuFc) (mouse)
Experiment: co-IP

Row | binding | Binder
1 | binds weakly | GPC6-CHA (protein, UniProt Q9R087 24-530) DVKARSCSEVRQAYGAKGFSLADIPYQEIAGEHLRICPQEYTCCTTEMEDKLSQQSKLEFENLVEETSHFVRTTFVSRHKKFDEFFRELLENAEKSLNDMFVRTYGMLYMQNSEVFQDLFTELKRYYTGGNVNLEEMLNDFWARLLERMFQLINPQYHFSEDYLECVSKYTDQLKPFGDVPRKLKIQVTRAFIAARTFVQGLTVGREVANRVSKVSPTPGCIRALMKMLYCPYCRGLPTVRPCNNYCLNVMKGCLANQADLDTEWNLFIDAMLLVAERLEGPFNIESVMDPIDVKISEAIMNMQENSMQVSAKVFQGCGQPKPAPALRSARSAPENFNTRFRPYNPEERPTTAAGTSLDRLVTDIKEKLKLSKKVWSALPYTICKDERVTAGTSNEEECWNGHSKARYLPEIMNDGLTNQINNPEVEVDITRPDTFIRQQIMALRVMTNKLKNAYNGNDVNFQDTSDESSGSGSGSGCMDDVCPTEFEFVTTEAPAVDPDRREEESS
2 | binds weakly | GPC1-CHA (protein, UniProt Q9QZF2 24-529) DPASKSRSCSEVRQIYGAKGFSLSDVPQAEISGEHLRICPQGYTCCTSEMEENLANHSRMELESALHDSSRALQATLATQLHGIDDHFQRLLNDSERTLQEAFPGAFGDLYTQNTRAFRDLYAELRLYYRGANLHLEETLAEFWARLLERLFKQLHPQLLPDDYLDCLGKQAEALRPFGDAPRELRLRATRAFVAARSFVQGLGVASDVVRKVAQVPLAPECSRAIMKLVYCAHCRGVPGARPCPDYCRNVLKGCLANQADLDAEWRNLLDSMVLITDKFWGPSGAESVIGGVHVWLAEAINALQDNKDTLTAKVIQACGNPKVNPHGSGPEEKRRRGKLALQEKPSTGTLEKLVSEAKAQLRDIQDFWISLPGTLCSEKMAMSPASDDRCWNGISKGRYLPEVMGDGLANQINNPEVEVDITKPDMTIRQQIMQLKIMTNRLRGAYGGNDVDFQDASDDGSGSGSGGGCPDDTCGRRVSKKSSSSRTPLTHALPGLSEQEGQKTS
3 | binds | GPC4 core-CHA protein (aa. 1-485) (domain or fragment, UniProt P51655 19-485) SLLAAELKSKSCSEVRRLYVSKGFNKNDAPLYEINGDHLKICPQDYTCCSQEMEEKYSLQSKDDFKTVVSEQCNHLQAIFASRYKKFDEFFKELLENAEKSLNDMFVKTYGHLYMQNSELFKDLFVELKRYYVAGNVNLEEMLNDFWARLLERMFRLVNSQYHFTDEYLECVSKYTEQLKPFGDVPRKLKLQVTRAFVAARTFAQGLAVARDVVSKVSVVNPTAQCTHALLKMIYCSHCRGLVTVKPCYNYCSNIMRGCLANQGDLDFEWNNFIDAMLMVAERLEGPFNIESVMDPIDVKISDAIMNMQDNSVQVSQKVFQGCGPPKPLPAGRISRSISESAFSARFRPYHPEQRPTTAAGTSLDRLVTDVKEKLKQAKKFWSSLPSTVCNDERMAAGNENEDDCWNGKGKSRYLFAVTGNGLANQGNNPEVQVDTSKPDILILRQIMALRVMTSKMKNAYNGNDVD
4 | binds | GPC4-CHA (protein, UniProt P51655 19-529) SLLAAELKSKSCSEVRRLYVSKGFNKNDAPLYEINGDHLKICPQDYTCCSQEMEEKYSLQSKDDFKTVVSEQCNHLQAIFASRYKKFDEFFKELLENAEKSLNDMFVKTYGHLYMQNSELFKDLFVELKRYYVAGNVNLEEMLNDFWARLLERMFRLVNSQYHFTDEYLECVSKYTEQLKPFGDVPRKLKLQVTRAFVAARTFAQGLAVARDVVSKVSVVNPTAQCTHALLKMIYCSHCRGLVTVKPCYNYCSNIMRGCLANQGDLDFEWNNFIDAMLMVAERLEGPFNIESVMDPIDVKISDAIMNMQDNSVQVSQKVFQGCGPPKPLPAGRISRSISESAFSARFRPYHPEQRPTTAAGTSLDRLVTDVKEKLKQAKKFWSSLPSTVCNDERMAAGNENEDDCWNGKGKSRYLFAVTGNGLANQGNNPEVQVDTSKPDILILRQIMALRVMTSKMKNAYNGNDVDFFDISDESSGEGSGSGCEYQQCPSEFEYNATDHSGKSANEKADS
5 | binds | GPC4 δHS-CHA (S494A, S498A, S500A) mutant protein (protein, UniProt P51655 19-529) SLLAAELKSKSCSEVRRLYVSKGFNKNDAPLYEINGDHLKICPQDYTCCSQEMEEKYSLQSKDDFKTVVSEQCNHLQAIFASRYKKFDEFFKELLENAEKSLNDMFVKTYGHLYMQNSELFKDLFVELKRYYVAGNVNLEEMLNDFWARLLERMFRLVNSQYHFTDEYLECVSKYTEQLKPFGDVPRKLKLQVTRAFVAARTFAQGLAVARDVVSKVSVVNPTAQCTHALLKMIYCSHCRGLVTVKPCYNYCSNIMRGCLANQGDLDFEWNNFIDAMLMVAERLEGPFNIESVMDPIDVKISDAIMNMQDNSVQVSQKVFQGCGPPKPLPAGRISRSISESAFSARFRPYHPEQRPTTAAGTSLDRLVTDVKEKLKQAKKFWSSLPSTVCNDERMAAGNENEDDCWNGKGKSRYLFAVTGNGLANQGNNPEVQVDTSKPDILILRQIMALRVMTSKMKNAYNGNDVDFFDISDESAGEGAGAGCEYQQCPSEFEYNATDHSGKSANEKADS
6 | binds weakly | GPC2-CHA (protein, UniProt Q8BKV1 22-556) HGSEAKVVRSCAETRQVLGARGYSLNLIPPSLISGEHLQVCPQEYTCCSSETEQKLIRDAEVTFRGLVEDSGSFLIHTLAARHRKFNEFFREMLSISQHSLAQLFSHSYGRLYSQHAVIFNSLFSGLRDYYEKSGEGLDDTLADFWAQLLERAFPLLHPQYSFPPDFLLCLTRLTSTADGSLQPFGDSPRRLRLQISRALVAARALVQGLETGRNVVSEALKVPVLEGCRQALMRLIGCPLCRGVPSLMPCRGFCLNVAHGCLSSRGLEPEWGGYLDGLLLLAEKLQGPFSFELAAESIGVKISEGLMHLQENSVKVSAKVFQECGTPHPVQSRSRRAPAPREEASRSWRASAEEERPTTAAGTNLHRLVWELRERLSRVRGFWAGLPVTVCGDSRMAADLSQETAPCWTGVGRGRYMSPVVVGSLNEQLHNPELDTSSPDVPTRRRRLHLRAATARMKAAALGQDLDMHDADEDASGSGGGQQYADDWKAGAVPVVPPARPPRPPRPPRRDGLGVRGGSGSARYNQGRSRNLGS
7 | binds | Midkine-CHA (protein, UniProt P12025 23-140) KKKEKVKKGSECSEWTWGPCTPSSKDCGMGFREGTCGAQTQRVHCKVPCNWKKEFGADCKYKFESWGACDGSTGTKARQGTLKKARYNAQCQETIRVTKPCTSKTKSKTKAKKGKGKD

— doi:10.1101/2025.05.16.654402
